Data: PubChem BioAssay
The inconclusive results got no clear call from the source; some entries with a clear call stand among them for comparison. Potencies beside an inconclusive call are fits to weak or partial responses and may not hold up. Active and inactive are the calls of the source. Unless noted, the limit is not given here; nearly all actives have AC50 up to about 26 µM.

Assays:
[1] = growth inhibition of DIPG glioma cells, dose response, cell-based, SU-DIPG-XVII, MIPE5.0, CellTiter-Glo, qHTS (AID 1347060); details: SU-DIPG-XVII viability, CellTiter-Glo ATP luminescence;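 also: cells exposed to compound for 48 hours before viability readout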
[2] = growth inhibition of DIPG glioma cells, dose response, cell-based, SU-DIPG-XIII, MIPE4.0, CellTiter-Glo, qHTS (AID 1347061; cut-off not given, nearly all actives have AC50 up to about 37 µM;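 also: cells exposed to compound for 48 hours before readout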); details: SU-DIPG-XIII viability, CellTiter-Glo ATP luminescence
[3] = growth inhibition of DIPG glioma cells, dose response, cell-based, JHH-DIPG-1, MIPE4.0, CellTiter-Glo, qHTS (AID 1347062; cut-off not given, nearly all actives have AC50 up to about 27 µM;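 also: cells exposed to compound for two days before readout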); details: JHH-DIPG-1 viability, CellTiter-Glo ATP luminescence
[4] = growth inhibition of DIPG glioma cells, dose response, cell-based, SU-DIPG-IV, MIPE4.0, CellTiter-Glo, qHTS (AID 1347063; cut-off not given, nearly all actives have AC50 up to about 30 µM;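 also: compound exposure lasted 48 hours before the viability readout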); details: SU-DIPG-IV viability, CellTiter-Glo ATP luminescence
[5] = growth inhibition of DIPG glioma cells, dose response, cell-based, SU-DIPG-XIII, MIPE5.0, CellTiter-Glo, qHTS (AID 1347064; cut-off not given, nearly all actives have AC50 up to about 23 µM;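 as to AC50: cells exposed to compound for 48 hours before the viability read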); details: SU-DIPG-XIII viability, CellTiter-Glo ATP luminescence
[6] = viability loss in pontine glioma line – cell-based, SU-DIPG-XXV, MIPE5.0, CellTiter-Glo, qHTS, dose response (AID 1347065); details: CellTiter-Glo ATP luminescence;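 also: cells exposed to compound for 48 hours before ATP readout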
[7] = SU-DIPG-VI glioma cell viability, MIPE4.0 library, CellTiter-Glo luminescence, qHTS (AID 1347066; cut-off not given, nearly all actives have AC50 up to about 30 µM;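 also: cells exposed to compound for 48 hours before readout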); details: CellTiter-Glo ATP luminescence
[8] = JHH-DIPG-1 glioma cell viability, MIPE5.0 library, CellTiter-Glo luminescence, qHTS (AID 1347067); details: JHH-DIPG-1 glioma viability, CellTiter-Glo ATP luminescence;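 also: cells exposed to compound for 48 hours before readout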
[9] = SU-DIPG-XXV glioma cell viability, MIPE5.0 library, qHTS (AID 1347068; cut-off not given, nearly all actives have IC50 up to about 30 µM;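 also: cells exposed to compound for 48 hours before viability readout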)

Structure (SMILES) | AC50 [1] | AC50 [2] | AC50 [3] | AC50 [4] | outcome [5] | outcome [6] | outcome [7] | AC50 [8] | IC50 [9] | outcome [2] | AC50 [5] | AC50 [6] | AC50 [7] | outcome [4] | outcome [8]
C[C@]12CC[C@@H]3c4ccc(O)cc4CC[C@H]3[C@@H]1CC[C@@H]2O | inconclusive: 26.3 µM [cytotoxic] | inconclusive: 23.5 µM [cytotoxic] | inconclusive: 20.9 µM [cytotoxic] | inconclusive: 14.8 µM [cytotoxic] | inactive | inactive | inactive | inconclusive: 29.5 µM [cytotoxic] | inconclusive: 14.8 µM [cytotoxic] | – | – | – | – | – | –
C[C@H]1[C@H](C)CC[C@]2(C(=O)O)CC[C@]3(C)C(=CC[C@@H]4[C@@]5(C)CC[C@H](O)C(C)(C)[C@@H]5CC[C@]43C)[C@H]12 | inconclusive: 26.3 µM [cytotoxic] | – | inconclusive: 27 µM [cytotoxic] | active: 42.9 µM | – | – | – | inconclusive: 33.2 µM [cytotoxic] | – | inactive | inconclusive: 18.6 µM [cytotoxic] | active: 18.6 µM | inconclusive: 24.1 µM [cytotoxic] | – | –
CNCc1ccc(-c2[nH]c3cc(F)cc4c3c2CCNC4=O)cc1 | inconclusive: 23.5 µM [cytotoxic] | – | inconclusive: 20.9 µM [cytotoxic] | – | – | – | inactive | inconclusive: 37.2 µM [cytotoxic] | inconclusive: 20.9 µM | inactive | inconclusive: 18.6 µM [cytotoxic] | inconclusive: 74.2 µM [cytotoxic] | – | inactive | –
Cn1cc(-c2cnn3c(N)c(Br)c([C@@H]4CCCNC4)nc23)cn1 | inconclusive: 23.5 µM [cytotoxic] | inconclusive: 6.62 µM [cytotoxic] | inconclusive: 0.148 µM [cytotoxic] | active: 2.09 µM | inconclusive | – | – | – | inconclusive: 5.25 µM | – | – | inconclusive: 37.2 µM [cytotoxic] | inconclusive: 1.18 µM [cytotoxic] | – | inactive
